# Test results as given in patent US20250041415A1, “CYTOTOXIC INNATE LYMPHOID CELL AND USES THEREOF” (Umoja Biopharma, Inc., priority 2021, published 2025).
# At least one compound was matched to its structure with a doubt left.
# Tests used:
# [1] = system: MDA-MB231 mCherry-FFLUC breast cancer cells; assay: In vivo breast cancer mouse model, RACR-TagCAR-NK cells; details: rapamycin dosing without RACR-TagCAR-NK cells
# [2] = system: Vδ2+ T cells transduced with RACR-FRB-mCherry; assay: RACR-expansion of blood-derived Vδ2+ T cells; assay type: cell-based, human; details: 10 nM, days 14 and 21
# Protocol: On day 14, an aliquot of the cells was collected and washed, stained for V32, and RACR transduction was measured by mCherry. Percent Vδ2+ RACR+ cells, as well as number of transduced V32+ cells measured by counting beads was assessed by detection of V82 stain and mCherry via flow cytometry. Similarly, on day 21, an aliquot of cells was again measured for percent and number of Vδ2+ RACR+ cells via flow cytometry.
structure (smiles),measurement,setting,value
"CO[C@H]1C[C@@H]2CC[C@@H](C)[C@@](O)(O2)C(=O)C(=O)N2CCCC[C@H]2C(=O)O[C@H]([C@H](C)C[C@@H]2CC[C@@H](O)[C@H](OC)C2)CC(=O)[C@H](C)/C=C(\C)[C@@H](O)[C@@H](OC)C(=O)[C@H](C)C[C@H](C)/C=C/C=C/C=C/1C [Rapamycin, rapamycin]","tumor growth (BLI), control mice without cells",[1],rapid tumor growth
same,percentage and total number of Vδ2+ RACR+ cells,[2],increased in both percentage and total number of cells
